Measurements as given in the supplement of paper PMC7666118.
The list shows a part of the results.

Protein sequences, listed by entry. Tags and fused reporters are not part of them. Lines headed by an entry give the natural chain unless they say otherwise; changes in a name come on top.
UniProt Q9H553: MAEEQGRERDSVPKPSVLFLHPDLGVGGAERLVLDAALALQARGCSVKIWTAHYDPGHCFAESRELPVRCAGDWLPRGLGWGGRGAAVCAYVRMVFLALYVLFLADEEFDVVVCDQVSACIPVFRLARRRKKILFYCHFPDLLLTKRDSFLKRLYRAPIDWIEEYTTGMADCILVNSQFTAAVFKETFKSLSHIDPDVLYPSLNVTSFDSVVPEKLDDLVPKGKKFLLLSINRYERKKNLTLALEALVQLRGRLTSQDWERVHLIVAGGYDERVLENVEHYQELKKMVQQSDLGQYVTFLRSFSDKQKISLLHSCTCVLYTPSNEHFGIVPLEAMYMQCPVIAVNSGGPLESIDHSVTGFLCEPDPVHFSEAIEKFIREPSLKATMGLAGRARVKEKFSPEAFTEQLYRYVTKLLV
UniProt Q6ULP2: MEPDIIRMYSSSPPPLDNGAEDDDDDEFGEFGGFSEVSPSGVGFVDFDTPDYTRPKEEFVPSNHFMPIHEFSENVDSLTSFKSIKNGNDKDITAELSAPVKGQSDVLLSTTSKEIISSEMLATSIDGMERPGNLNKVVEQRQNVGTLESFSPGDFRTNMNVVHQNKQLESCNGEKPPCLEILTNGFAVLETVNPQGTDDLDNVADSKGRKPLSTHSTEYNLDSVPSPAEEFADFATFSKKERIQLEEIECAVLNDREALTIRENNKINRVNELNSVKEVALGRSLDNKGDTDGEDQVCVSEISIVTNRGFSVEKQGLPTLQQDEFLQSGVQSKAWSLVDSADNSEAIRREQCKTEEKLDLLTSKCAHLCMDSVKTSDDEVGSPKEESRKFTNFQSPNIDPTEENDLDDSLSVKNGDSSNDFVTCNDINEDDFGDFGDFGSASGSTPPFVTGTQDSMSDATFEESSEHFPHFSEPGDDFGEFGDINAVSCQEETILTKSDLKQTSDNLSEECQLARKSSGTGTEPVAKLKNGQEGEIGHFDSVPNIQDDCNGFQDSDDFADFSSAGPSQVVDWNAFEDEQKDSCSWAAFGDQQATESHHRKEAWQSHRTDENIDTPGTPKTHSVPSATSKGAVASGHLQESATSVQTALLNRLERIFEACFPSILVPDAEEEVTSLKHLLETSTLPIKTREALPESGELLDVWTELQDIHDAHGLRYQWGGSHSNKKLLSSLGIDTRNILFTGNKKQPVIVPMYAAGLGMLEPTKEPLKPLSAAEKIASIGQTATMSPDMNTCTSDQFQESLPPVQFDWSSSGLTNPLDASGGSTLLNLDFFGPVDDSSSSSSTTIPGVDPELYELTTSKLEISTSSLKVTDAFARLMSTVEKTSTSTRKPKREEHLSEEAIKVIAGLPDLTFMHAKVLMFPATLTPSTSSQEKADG
UniProt Q8N3C0, whole entry: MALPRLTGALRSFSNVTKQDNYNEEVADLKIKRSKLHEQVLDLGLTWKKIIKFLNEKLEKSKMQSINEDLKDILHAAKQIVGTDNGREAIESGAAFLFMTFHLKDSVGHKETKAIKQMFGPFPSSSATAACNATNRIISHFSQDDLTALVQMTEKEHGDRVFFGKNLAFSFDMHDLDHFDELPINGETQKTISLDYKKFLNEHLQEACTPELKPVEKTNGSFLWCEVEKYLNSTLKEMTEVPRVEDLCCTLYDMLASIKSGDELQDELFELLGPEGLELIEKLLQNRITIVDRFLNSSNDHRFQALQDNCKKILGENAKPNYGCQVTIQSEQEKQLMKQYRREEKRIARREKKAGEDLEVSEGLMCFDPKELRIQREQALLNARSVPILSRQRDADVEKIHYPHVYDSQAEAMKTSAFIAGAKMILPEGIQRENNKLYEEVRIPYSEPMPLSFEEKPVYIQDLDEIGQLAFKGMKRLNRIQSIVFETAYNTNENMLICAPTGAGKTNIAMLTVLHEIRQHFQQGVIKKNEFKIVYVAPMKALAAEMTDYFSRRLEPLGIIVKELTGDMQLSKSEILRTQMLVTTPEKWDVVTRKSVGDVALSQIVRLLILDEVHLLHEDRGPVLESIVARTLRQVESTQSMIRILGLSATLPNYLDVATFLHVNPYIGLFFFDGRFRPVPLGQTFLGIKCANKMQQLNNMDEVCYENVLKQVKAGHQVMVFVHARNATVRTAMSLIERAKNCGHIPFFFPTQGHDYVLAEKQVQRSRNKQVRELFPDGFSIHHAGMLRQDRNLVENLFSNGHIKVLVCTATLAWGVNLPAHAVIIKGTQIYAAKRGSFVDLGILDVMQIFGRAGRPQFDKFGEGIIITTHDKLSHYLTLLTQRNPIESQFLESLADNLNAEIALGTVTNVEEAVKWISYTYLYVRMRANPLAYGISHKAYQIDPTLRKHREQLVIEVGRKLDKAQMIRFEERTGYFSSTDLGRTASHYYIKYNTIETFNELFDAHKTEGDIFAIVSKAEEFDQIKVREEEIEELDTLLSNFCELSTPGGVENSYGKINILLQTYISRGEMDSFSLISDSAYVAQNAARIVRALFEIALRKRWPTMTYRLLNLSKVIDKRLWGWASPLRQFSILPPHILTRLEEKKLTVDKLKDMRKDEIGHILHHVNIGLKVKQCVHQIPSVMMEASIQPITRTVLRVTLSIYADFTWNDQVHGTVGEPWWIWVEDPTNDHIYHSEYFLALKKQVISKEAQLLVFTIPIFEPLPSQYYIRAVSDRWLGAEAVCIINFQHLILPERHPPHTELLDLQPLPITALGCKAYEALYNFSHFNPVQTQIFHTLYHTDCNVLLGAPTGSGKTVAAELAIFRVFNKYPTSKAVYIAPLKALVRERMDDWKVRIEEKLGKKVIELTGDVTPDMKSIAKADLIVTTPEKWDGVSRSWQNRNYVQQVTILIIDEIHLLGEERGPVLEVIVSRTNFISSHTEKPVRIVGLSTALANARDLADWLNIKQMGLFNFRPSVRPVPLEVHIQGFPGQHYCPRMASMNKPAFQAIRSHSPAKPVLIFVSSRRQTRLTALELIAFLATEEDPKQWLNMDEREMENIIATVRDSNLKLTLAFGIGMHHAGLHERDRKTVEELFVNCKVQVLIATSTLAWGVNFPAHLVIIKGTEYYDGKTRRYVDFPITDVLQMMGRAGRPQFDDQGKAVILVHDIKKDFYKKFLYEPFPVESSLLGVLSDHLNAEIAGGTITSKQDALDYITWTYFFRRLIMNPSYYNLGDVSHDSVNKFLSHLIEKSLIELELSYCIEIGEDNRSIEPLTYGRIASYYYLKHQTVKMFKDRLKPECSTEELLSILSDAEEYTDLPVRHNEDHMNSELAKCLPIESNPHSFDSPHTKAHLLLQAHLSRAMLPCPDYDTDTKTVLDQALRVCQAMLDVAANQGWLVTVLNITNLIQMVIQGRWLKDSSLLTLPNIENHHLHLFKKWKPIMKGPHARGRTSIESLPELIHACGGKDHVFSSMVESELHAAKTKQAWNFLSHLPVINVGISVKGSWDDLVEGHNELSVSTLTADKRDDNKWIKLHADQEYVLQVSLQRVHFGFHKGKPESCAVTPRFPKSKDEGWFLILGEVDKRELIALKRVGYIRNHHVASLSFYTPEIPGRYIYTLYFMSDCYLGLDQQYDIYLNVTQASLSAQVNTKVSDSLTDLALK
UniProt Q8IXJ9: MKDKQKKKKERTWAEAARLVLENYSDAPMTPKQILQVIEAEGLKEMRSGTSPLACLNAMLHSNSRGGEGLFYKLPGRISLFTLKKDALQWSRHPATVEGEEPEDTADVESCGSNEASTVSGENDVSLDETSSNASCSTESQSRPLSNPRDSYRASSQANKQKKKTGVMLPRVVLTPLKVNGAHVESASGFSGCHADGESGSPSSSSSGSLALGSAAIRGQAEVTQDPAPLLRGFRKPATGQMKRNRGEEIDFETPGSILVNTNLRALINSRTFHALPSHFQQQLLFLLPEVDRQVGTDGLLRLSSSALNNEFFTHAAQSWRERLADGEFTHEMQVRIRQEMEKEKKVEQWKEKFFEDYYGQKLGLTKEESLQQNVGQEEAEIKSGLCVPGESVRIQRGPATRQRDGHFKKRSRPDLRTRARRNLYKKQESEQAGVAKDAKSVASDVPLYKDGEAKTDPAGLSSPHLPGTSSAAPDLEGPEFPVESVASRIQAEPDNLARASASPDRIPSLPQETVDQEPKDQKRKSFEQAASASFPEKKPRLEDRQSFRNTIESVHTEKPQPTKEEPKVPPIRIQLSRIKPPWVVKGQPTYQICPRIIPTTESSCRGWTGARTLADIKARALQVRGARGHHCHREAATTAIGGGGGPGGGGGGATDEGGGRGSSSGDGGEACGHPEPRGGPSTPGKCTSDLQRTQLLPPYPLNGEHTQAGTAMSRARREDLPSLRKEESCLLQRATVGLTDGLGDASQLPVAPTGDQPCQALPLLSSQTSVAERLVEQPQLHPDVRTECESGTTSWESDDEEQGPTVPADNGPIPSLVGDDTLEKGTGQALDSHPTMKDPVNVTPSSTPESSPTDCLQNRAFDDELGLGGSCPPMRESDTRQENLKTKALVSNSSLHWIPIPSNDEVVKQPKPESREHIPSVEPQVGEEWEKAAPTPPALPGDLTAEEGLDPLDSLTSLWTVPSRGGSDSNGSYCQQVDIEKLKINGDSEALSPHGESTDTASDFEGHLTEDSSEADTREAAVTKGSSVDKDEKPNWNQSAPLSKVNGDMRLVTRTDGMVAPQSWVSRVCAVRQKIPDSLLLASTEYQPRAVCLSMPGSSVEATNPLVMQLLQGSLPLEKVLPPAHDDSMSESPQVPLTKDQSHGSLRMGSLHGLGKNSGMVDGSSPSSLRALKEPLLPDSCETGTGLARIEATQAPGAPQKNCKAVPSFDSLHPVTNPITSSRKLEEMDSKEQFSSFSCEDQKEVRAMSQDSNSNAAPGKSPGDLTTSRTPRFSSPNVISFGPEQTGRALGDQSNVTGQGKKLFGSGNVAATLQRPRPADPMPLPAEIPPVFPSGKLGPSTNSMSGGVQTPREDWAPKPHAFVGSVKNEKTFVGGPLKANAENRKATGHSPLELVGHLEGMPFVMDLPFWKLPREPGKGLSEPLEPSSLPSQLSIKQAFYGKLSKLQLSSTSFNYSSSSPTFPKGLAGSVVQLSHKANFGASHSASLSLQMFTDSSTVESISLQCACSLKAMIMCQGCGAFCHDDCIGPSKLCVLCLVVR
UniProt P49407: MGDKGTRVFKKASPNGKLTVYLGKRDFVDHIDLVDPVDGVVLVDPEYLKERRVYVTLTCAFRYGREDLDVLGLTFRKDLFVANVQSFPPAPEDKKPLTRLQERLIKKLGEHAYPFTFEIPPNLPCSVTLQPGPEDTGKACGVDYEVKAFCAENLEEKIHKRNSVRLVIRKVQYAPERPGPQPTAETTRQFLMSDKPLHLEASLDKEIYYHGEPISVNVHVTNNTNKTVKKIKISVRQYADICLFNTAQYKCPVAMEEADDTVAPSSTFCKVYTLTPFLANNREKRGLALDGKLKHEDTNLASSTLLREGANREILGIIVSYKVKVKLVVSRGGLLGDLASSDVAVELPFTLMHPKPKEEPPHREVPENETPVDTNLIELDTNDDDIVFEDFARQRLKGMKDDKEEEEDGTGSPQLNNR
UniProt P09525: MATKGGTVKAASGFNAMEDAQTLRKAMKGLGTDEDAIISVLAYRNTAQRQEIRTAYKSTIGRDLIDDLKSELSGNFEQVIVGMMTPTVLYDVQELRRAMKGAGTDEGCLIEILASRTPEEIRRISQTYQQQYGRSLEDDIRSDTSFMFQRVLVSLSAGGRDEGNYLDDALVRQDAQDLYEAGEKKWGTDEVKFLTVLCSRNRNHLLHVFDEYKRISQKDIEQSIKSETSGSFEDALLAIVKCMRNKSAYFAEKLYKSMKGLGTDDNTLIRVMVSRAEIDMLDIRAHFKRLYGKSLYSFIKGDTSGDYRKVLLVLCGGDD
UniProt Q9ULX6: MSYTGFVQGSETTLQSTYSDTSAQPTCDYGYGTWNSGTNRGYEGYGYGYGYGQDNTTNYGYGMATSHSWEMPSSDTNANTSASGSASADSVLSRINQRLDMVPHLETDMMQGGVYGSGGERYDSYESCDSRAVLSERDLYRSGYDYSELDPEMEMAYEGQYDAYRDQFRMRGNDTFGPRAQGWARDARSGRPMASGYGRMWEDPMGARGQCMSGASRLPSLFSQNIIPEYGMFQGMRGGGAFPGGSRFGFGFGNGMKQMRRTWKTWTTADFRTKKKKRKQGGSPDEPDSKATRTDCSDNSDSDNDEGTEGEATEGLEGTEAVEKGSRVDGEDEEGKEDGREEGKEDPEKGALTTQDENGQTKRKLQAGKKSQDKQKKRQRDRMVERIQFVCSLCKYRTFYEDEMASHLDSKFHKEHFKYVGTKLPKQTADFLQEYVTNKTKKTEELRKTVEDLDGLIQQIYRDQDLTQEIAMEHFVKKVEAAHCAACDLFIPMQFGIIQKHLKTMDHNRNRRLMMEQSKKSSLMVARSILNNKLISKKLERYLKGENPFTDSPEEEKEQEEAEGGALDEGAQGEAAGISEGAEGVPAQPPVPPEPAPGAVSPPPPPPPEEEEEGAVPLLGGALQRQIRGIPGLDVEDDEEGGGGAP

Each target was assayed with COc1ccc(Cn2ccc3cc(C)c(C(=O)NO)cc32)cc1 (assay: dose-dependent thermal stabilisation call (2D-TPP, DLPTP, 10% FDR) (binary (1 = stabilised)); higher = stabilised by the compound). Settings: system: HL-60 intact cells; concentration range 0.04-10 µM.
Method: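 2D thermal proteome profiling in intact HL-60 cells treated with BRD-3811 (0, 0.04, 0.29, 2, 10 uM) for 90 min at 37 C, then heated 3 min at one of 12 temperatures (42-63.9 C). Soluble protein was quantified by TMT10 MS. The value is the DLPTP call of the paper: dose-dependent thermal stabilisation over all temperatures at 10% FDR (F-test of a dose-response against a flat model); one experiment, one call per tested protein.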

Row | Target | dose-dependent thermal stabilisation call
1 | ALG2 (UniProt Q9H553) | inactive: 0
2 | AHCTF1 (UniProt Q8WYP5) | inactive: 0
3 | AHCYL2 (UniProt Q96HN2) | inactive: 0
4 | ARGLU1 (UniProt Q9NWB6) | inactive: 0
5 | APPL1 (UniProt Q9UKG1) | inactive: 0
6 | AFTPH (UniProt Q6ULP2) | inactive: 0
7 | ASCC3 (UniProt Q8N3C0) | inactive: 0
8 | ARHGEF18 (UniProt Q6ZSZ5) | inactive: 0
9 | AIF1 (UniProt P55008) | inactive: 0
10 | AIDA (UniProt Q96BJ3) | inactive: 0
11 | ALDH16A1 (UniProt Q8IZ83) | inactive: 0
12 | ARFGEF1 (UniProt Q9Y6D6) | inactive: 0
13 | AP3S1 (UniProt Q92572) | inactive: 0
14 | ASXL1 (UniProt Q8IXJ9) | inactive: 0
15 | AMPD3 (UniProt Q01432) | inactive: 0
16 | ALS2CR4 (UniProt Q96Q45) | inactive: 0
17 | ARHGAP9 (UniProt Q9BRR9) | inactive: 0
18 | ARMC1 (UniProt Q9NVT9) | inactive: 0

Some values from the entries so far.
Entry of AP3S1 (UniProt Q92572) under dose-dependent thermal stabilisation call: inactive: 0
Entry of AHCYL2 (UniProt Q96HN2) under dose-dependent thermal stabilisation call: inactive: 0

(further entries)

Row | Target | dose-dependent thermal stabilisation call
19 | ANKRD22 (UniProt Q5VYY1) | inactive: 0
20 | ARRB1 (UniProt P49407) | inactive: 0
21 | ANKRD50 (UniProt Q9ULJ7) | inactive: 0
22 | ANAPC5 (UniProt Q9UJX4) | inactive: 0
23 | ARID2 (UniProt Q68CP9) | inactive: 0
24 | AP3D1 (UniProt O14617) | inactive: 0
25 | ANXA4 (UniProt P09525) | inactive: 0
26 | ANKRD46 (UniProt Q86W74) | inactive: 0
27 | ALG11 (UniProt Q2TAA5) | inactive: 0
28 | AK3 (UniProt Q9UIJ7) | inactive: 0
29 | ARHGEF6 (UniProt Q15052) | inactive: 0
30 | AFF1 (UniProt P51825) | inactive: 0
31 | AGXT2L2 (UniProt Q8IUZ5) | inactive: 0
32 | AKAP8L (UniProt Q9ULX6) | inactive: 0
33 | ARPC1A (UniProt Q92747) | inactive: 0
34 | ASCC1 (UniProt Q8N9N2) | inactive: 0
35 | ARV1 (UniProt Q9H2C2) | inactive: 0
36 | ALG8 (UniProt Q9BVK2) | inactive: 0
